PubChem BioAssay AID256 (DTP/NCI, 2004)
The list is a part of this screen's results and no random one: it gathers tests that were run many times, whatever their T/C, doses with no T/C, and many T/C values between a quarter and a half above the control. Further doses and runs are listed elsewhere. T/C is the treated group as % of the vehicle group. Some doses have a count of surviving animals in place of a T/C: the source files T/C as zero there, which appears to mark a toxic dose or a test without result, not a measured value. Some doses without a T/C left all or most animals alive at the check, yet need not have been tolerated: survival well below the control is almost never listed, so the zero probably covers shortened survival too. Survivors were counted at the toxicity check, usually on the fifth day, unless a day is given; later deaths do not show. Schedules are NCI's codes, read here as Q, the interval in days (D) or hours (H), X, the number of doses. Some molecules as drawn cover several salts, stereoisomers or complexes of the source; a dose is that of the sample tested. Some entries hold several experiments; their values stand side by side, smallest first. For survival time, the PubChem record calls one and a half times the control and up active, and a quarter to a half above the control has no call in these data; cut-offs in other NCI protocols can differ. Some T/C values carry the count of animals alive at the toxicity check (mostly the fifth day); where none is given, no animal had died by that day. Signs of the kind (2×) count equal records among those shown.

Test system: CD2F1 mice, L1210 leukemia ip, survival T/C
Experiment: NCI In Vivo Anticancer Drug Screen. Data for tumor model L1210 Leukemia (intraperitoneal) in CD2F1 (CDF1) mice
Details: higher T/C = longer survival
In short: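 Activity against a transplanted murine tumor was judged by comparing the compound group with a vehicle group. The outcome in the treated animals was divided by that in the controls.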

[1] = T/C endpoint: mean survival time, dose: 75.0 mg/kg/injection, schedule: Q01DX009 (ip), vehicle: alkali diluted with saline
[2] = T/C endpoint: median survival time, dose: 1000.0 mg/kg/injection, schedule: Q04DX003 (ip), vehicle: water

For `NC(C/[N+]([O-])=N/O)C(=O)O` (stereo unspecified), the T/C (T/C endpoint: mean survival time, dose: 16.0 mg/kg/injection, schedule: Q01DX009 (ip), vehicle: saline) was 125 % of control, the T/C (T/C endpoint: mean survival time, dose: 18.75 mg/kg/injection, schedule: Q01DX009 (ip), vehicle: alkali diluted with saline) was 135 % of control and the T/C (T/C endpoint: mean survival time, dose: 29.6 mg/kg/injection, schedule: Q01DX010 (ip), vehicle: alkali diluted with saline) was 142 % of control. The T/C (T/C endpoint: mean survival time, dose: 32.0 mg/kg/injection, schedule: Q03HX024 (ip), vehicle: saline) was 130 % of control, the T/C (T/C endpoint: mean survival time, dose: 37.5 mg/kg/injection, schedule: Q01DX009 (ip), vehicle: alkali diluted with saline) was 134 % of control and the T/C (T/C endpoint: mean survival time, dose: 44.4 mg/kg/injection, schedule: Q01DX010 (ip), vehicle: alkali diluted with saline) was 144 % of control. The T/C (T/C endpoint: mean survival time, dose: 50.0 mg/kg/injection, schedule: Q04DX003 (ip), vehicle: alkali diluted with saline) was 101, 106 (2×), 116, 128 % of control, the T/C (T/C endpoint: mean survival time, dose: 60.0 mg/kg/injection, schedule: Q01DX005 (ip), vehicle: alkali diluted with saline) was 129 % of control and the T/C (T/C endpoint: mean survival time, dose: 64.0 mg/kg/injection, schedule: Q01DX009 (ip), vehicle: saline) was 129 % of control. The T/C (T/C endpoint: mean survival time, dose: 64.0 mg/kg/injection, schedule: Q03HX024 (ip), vehicle: saline) was 144 % of control, the T/C (T/C endpoint: mean survival time, dose: 66.7 mg/kg/injection, schedule: Q01DX010 (ip), vehicle: alkali diluted with saline) was 149 % of control and the T/C [1] was 125 [7 of 8 alive] and 129 % of control. For the same molecule, the survivor count [1] was 8 of 8, the T/C (T/C endpoint: mean survival time, dose: 80.0 mg/kg/injection, schedule: Q01DX009 (ip), vehicle: alkali diluted with saline) was 130 % of control and the T/C (T/C endpoint: mean survival time, dose: 100.0 mg/kg/injection, schedule: Q01DX010 (ip), vehicle: alkali diluted with saline) was 126 % of control. The T/C (T/C endpoint: mean survival time, dose: 100.0 mg/kg/injection, schedule: Q04DX003 (ip), vehicle: alkali diluted with saline) was 108, 112, 124, 132, 135, 136 % of control, the T/C (T/C endpoint: mean survival time, dose: 120.0 mg/kg/injection, schedule: Q01DX005 (ip), vehicle: alkali diluted with saline) was 145 % of control and the T/C (T/C endpoint: mean survival time, dose: 128.0 mg/kg/injection, schedule: Q03HX008 (ip), vehicle: saline) was 131 % of control [9 of 10 alive]. For the same molecule, the T/C (T/C endpoint: mean survival time, dose: 128.0 mg/kg/injection, schedule: Q03HX016 (ip), vehicle: saline) was 138 % of control, the T/C (T/C endpoint: mean survival time, dose: 128.0 mg/kg/injection, schedule: Q03HX024 (ip), vehicle: saline) was 130 % of control and the T/C (T/C endpoint: mean survival time, dose: 128.0 mg/kg/injection, schedule: Q04DX003 (ip), vehicle: saline) was 131 % of control. The survivor count (T/C endpoint: mean survival time, dose: 150.0 mg/kg/injection, schedule: Q01DX009 (ip), vehicle: alkali diluted with saline) was 7 of 8 and 8 of 8, the T/C (T/C endpoint: mean survival time, dose: 200.0 mg/kg/injection, schedule: Q04DX003 (ip), vehicle: alkali diluted with saline) was 120, 132, 144 [7 of 8 alive], 153 [7 of 8 alive], 158, 160 % of control and the T/C (T/C endpoint: mean survival time, dose: 225.0 mg/kg/injection, schedule: Q04DX003 (ip), vehicle: alkali diluted with saline) was 144 % of control. The survivor count (T/C endpoint: mean survival time, dose: 256.0 mg/kg/injection, schedule: Q01DX009 (ip), vehicle: saline) was 9 of 10, the survivor count (T/C endpoint: mean survival time, dose: 256.0 mg/kg/injection, schedule: Q01DX009 (oral), vehicle: saline) was 10 of 10 and the survivor count (T/C endpoint: mean survival time, dose: 256.0 mg/kg/injection, schedule: Q01DX009 (sc), vehicle: saline) was 10 of 10. The survivor count (T/C endpoint: mean survival time, dose: 256.0 mg/kg/injection, schedule: Q03HX008 (ip), vehicle: saline) was 6 of 10, the survivor count (T/C endpoint: mean survival time, dose: 256.0 mg/kg/injection, schedule: Q03HX016 (ip), vehicle: saline) was 4 of 10 and the survivor count (T/C endpoint: mean survival time, dose: 256.0 mg/kg/injection, schedule: Q03HX024 (ip), vehicle: saline) was 6 of 10. For the same molecule, the T/C (T/C endpoint: mean survival time, dose: 256.0 mg/kg/injection, schedule: Q08DX002 (ip), vehicle: saline) was 131 % of control, the T/C (T/C endpoint: mean survival time, dose: 400.0 mg/kg/injection, schedule: Q04DX003 (ip), vehicle: alkali diluted with saline) was 116, 151, 167, 182, 188, 196 % of control and the T/C (T/C endpoint: mean survival time, dose: 512.0 mg/kg/injection, schedule: Q01DX001 (ip), vehicle: saline) was 129 % of control. The survivor count (T/C endpoint: mean survival time, dose: 512.0 mg/kg/injection, schedule: Q01DX009 (ip), vehicle: saline) was 0 of 10, the survivor count (T/C endpoint: mean survival time, dose: 512.0 mg/kg/injection, schedule: Q01DX009 (oral), vehicle: saline) was 6 of 10 and the survivor count (T/C endpoint: mean survival time, dose: 512.0 mg/kg/injection, schedule: Q01DX009 (sc), vehicle: saline) was 5 of 10. The T/C (T/C endpoint: mean survival time, dose: 512.0 mg/kg/injection, schedule: Q04DX003 (oral), vehicle: saline) was 137 % of control [9 of 10 alive], the T/C (T/C endpoint: mean survival time, dose: 512.0 mg/kg/injection, schedule: Q08DX002 (ip), vehicle: saline) was 143 % of control and the T/C (T/C endpoint: mean survival time, dose: 800.0 mg/kg/injection, schedule: Q04DX003 (ip), vehicle: alkali diluted with saline) was 113, 134, 181, 235 % of control [5 of 6 alive]. The T/C (T/C endpoint: mean survival time, dose: 1024.0 mg/kg/injection, schedule: Q01DX001 (ip), vehicle: saline) was 129 % of control, the survivor count (T/C endpoint: mean survival time, dose: 1024.0 mg/kg/injection, schedule: Q01DX009 (oral), vehicle: saline) was 0 of 10 and the survivor count (T/C endpoint: mean survival time, dose: 2048.0 mg/kg/injection, schedule: Q01DX001 (ip), vehicle: saline) was 0 of 10. For the same molecule, the survivor count (T/C endpoint: mean survival time, dose: 2048.0 mg/kg/injection, schedule: Q01DX009 (oral), vehicle: saline) was 0 of 10, the survivor count (T/C endpoint: mean survival time, dose: 2048.0 mg/kg/injection, schedule: Q04DX003 (ip), vehicle: saline) was 0 of 10 and the survivor count (T/C endpoint: mean survival time, dose: 2048.0 mg/kg/injection, schedule: Q04DX003 (oral), vehicle: saline) was 2 of 10. The survivor count (T/C endpoint: mean survival time, dose: 2048.0 mg/kg/injection, schedule: Q04DX003 (sc), vehicle: saline) was 2 of 10, the survivor count (T/C endpoint: mean survival time, dose: 2048.0 mg/kg/injection, schedule: Q08DX002 (ip), vehicle: saline) was 0 of 10 and the T/C (T/C endpoint: median survival time, dose: 19.4 mg/kg/injection, schedule: Q01DX009 (ip), vehicle: alkali diluted with saline) was 129 % of control. The T/C (T/C endpoint: median survival time, dose: 31.3 mg/kg/injection, schedule: Q01DX009 (ip), vehicle: water) was 133 % of control, the T/C (T/C endpoint: median survival time, dose: 32.4 mg/kg/injection, schedule: Q01DX009 (ip), vehicle: alkali diluted with saline) was 134 % of control and the T/C (T/C endpoint: median survival time, dose: 45.0 mg/kg/injection, schedule: Q01DX009 (ip), vehicle: alkali diluted with saline) was 137 % of control. For the same molecule, the T/C (T/C endpoint: median survival time, dose: 54.0 mg/kg/injection, schedule: Q01DX009 (ip), vehicle: alkali diluted with saline) was 136 % of control, the T/C (T/C endpoint: median survival time, dose: 60.0 mg/kg/injection, schedule: Q01DX009 (ip), vehicle: alkali diluted with saline) was 140 % of control and the T/C (T/C endpoint: median survival time, dose: 62.5 mg/kg/injection, schedule: Q01DX009 (ip), vehicle: water) was 133 % of control. The T/C (T/C endpoint: median survival time, dose: 62.5 mg/kg/injection, schedule: Q04DX003 (ip), vehicle: water) was 133 % of control, the T/C (T/C endpoint: median survival time, dose: 75.0 mg/kg/injection, schedule: Q01DX009 (ip), vehicle: alkali diluted with saline) was 145 % of control and the T/C (T/C endpoint: median survival time, dose: 97.2 mg/kg/injection, schedule: Q04DX003 (ip), vehicle: alkali diluted with saline) was 132 % of control. The T/C (T/C endpoint: median survival time, dose: 100.0 mg/kg/injection, schedule: Q01DX009 (ip), vehicle: alkali diluted with saline) was 129 % of control, the survivor count (T/C endpoint: median survival time, dose: 125.0 mg/kg/injection, schedule: Q01DX009 (ip), vehicle: water) was 10 of 10 and the T/C (T/C endpoint: median survival time, dose: 125.0 mg/kg/injection, schedule: Q04DX003 (ip), vehicle: water) was 144 % of control. The T/C (T/C endpoint: median survival time, dose: 150.0 mg/kg/injection, schedule: Q01DX009 (ip), vehicle: alkali diluted with saline) was 134 % of control, the survivor count (T/C endpoint: median survival time, dose: 250.0 mg/kg/injection, schedule: Q01DX009 (ip), vehicle: water) was 8 of 10 and 9 of 10 and the survivor count (T/C endpoint: median survival time, dose: 500.0 mg/kg/injection, schedule: Q01DX009 (ip), vehicle: water) was 3 of 10 and 7 of 10. The T/C (T/C endpoint: median survival time, dose: 500.0 mg/kg/injection, schedule: Q04DX003 (ip), vehicle: water) was 127 % of control, the survivor count (T/C endpoint: median survival time, dose: 1000.0 mg/kg/injection, schedule: Q01DX009 (ip), vehicle: water) was 0 of 10 and 3 of 10 and the T/C [2] was 133 % of control. For the same molecule, the survivor count [2] was 1 of 10.

For `COc1ccc(NC2=C(C)C(=O)C3=C(C2=O)[C@H](COC(N)=O)[C@]2(OC)[C@@H]4N[C@@H]4CN32)cc1OC`, the T/C (T/C endpoint: median survival time, dose: 1.5 mg/kg/injection, schedule: Q01DX001 (ip), vehicle: water) was 125 % of control, the T/C (T/C endpoint: median survival time, dose: 6.0 mg/kg/injection, schedule: Q01DX001 (ip), vehicle: water) was 134 % of control and the T/C (T/C endpoint: median survival time, dose: 12.0 mg/kg/injection, schedule: Q01DX001 (ip), vehicle: water) was 141 and 148 % of control. The survivor count (T/C endpoint: median survival time, dose: 24.0 mg/kg/injection, schedule: Q01DX001 (ip), vehicle: water) was 4 of 6.
